# Measured values published in article PMC13304329.
# Protein sequences, listed by entry. Tags and fused reporters are not part of them.
# UniProt Q5S007: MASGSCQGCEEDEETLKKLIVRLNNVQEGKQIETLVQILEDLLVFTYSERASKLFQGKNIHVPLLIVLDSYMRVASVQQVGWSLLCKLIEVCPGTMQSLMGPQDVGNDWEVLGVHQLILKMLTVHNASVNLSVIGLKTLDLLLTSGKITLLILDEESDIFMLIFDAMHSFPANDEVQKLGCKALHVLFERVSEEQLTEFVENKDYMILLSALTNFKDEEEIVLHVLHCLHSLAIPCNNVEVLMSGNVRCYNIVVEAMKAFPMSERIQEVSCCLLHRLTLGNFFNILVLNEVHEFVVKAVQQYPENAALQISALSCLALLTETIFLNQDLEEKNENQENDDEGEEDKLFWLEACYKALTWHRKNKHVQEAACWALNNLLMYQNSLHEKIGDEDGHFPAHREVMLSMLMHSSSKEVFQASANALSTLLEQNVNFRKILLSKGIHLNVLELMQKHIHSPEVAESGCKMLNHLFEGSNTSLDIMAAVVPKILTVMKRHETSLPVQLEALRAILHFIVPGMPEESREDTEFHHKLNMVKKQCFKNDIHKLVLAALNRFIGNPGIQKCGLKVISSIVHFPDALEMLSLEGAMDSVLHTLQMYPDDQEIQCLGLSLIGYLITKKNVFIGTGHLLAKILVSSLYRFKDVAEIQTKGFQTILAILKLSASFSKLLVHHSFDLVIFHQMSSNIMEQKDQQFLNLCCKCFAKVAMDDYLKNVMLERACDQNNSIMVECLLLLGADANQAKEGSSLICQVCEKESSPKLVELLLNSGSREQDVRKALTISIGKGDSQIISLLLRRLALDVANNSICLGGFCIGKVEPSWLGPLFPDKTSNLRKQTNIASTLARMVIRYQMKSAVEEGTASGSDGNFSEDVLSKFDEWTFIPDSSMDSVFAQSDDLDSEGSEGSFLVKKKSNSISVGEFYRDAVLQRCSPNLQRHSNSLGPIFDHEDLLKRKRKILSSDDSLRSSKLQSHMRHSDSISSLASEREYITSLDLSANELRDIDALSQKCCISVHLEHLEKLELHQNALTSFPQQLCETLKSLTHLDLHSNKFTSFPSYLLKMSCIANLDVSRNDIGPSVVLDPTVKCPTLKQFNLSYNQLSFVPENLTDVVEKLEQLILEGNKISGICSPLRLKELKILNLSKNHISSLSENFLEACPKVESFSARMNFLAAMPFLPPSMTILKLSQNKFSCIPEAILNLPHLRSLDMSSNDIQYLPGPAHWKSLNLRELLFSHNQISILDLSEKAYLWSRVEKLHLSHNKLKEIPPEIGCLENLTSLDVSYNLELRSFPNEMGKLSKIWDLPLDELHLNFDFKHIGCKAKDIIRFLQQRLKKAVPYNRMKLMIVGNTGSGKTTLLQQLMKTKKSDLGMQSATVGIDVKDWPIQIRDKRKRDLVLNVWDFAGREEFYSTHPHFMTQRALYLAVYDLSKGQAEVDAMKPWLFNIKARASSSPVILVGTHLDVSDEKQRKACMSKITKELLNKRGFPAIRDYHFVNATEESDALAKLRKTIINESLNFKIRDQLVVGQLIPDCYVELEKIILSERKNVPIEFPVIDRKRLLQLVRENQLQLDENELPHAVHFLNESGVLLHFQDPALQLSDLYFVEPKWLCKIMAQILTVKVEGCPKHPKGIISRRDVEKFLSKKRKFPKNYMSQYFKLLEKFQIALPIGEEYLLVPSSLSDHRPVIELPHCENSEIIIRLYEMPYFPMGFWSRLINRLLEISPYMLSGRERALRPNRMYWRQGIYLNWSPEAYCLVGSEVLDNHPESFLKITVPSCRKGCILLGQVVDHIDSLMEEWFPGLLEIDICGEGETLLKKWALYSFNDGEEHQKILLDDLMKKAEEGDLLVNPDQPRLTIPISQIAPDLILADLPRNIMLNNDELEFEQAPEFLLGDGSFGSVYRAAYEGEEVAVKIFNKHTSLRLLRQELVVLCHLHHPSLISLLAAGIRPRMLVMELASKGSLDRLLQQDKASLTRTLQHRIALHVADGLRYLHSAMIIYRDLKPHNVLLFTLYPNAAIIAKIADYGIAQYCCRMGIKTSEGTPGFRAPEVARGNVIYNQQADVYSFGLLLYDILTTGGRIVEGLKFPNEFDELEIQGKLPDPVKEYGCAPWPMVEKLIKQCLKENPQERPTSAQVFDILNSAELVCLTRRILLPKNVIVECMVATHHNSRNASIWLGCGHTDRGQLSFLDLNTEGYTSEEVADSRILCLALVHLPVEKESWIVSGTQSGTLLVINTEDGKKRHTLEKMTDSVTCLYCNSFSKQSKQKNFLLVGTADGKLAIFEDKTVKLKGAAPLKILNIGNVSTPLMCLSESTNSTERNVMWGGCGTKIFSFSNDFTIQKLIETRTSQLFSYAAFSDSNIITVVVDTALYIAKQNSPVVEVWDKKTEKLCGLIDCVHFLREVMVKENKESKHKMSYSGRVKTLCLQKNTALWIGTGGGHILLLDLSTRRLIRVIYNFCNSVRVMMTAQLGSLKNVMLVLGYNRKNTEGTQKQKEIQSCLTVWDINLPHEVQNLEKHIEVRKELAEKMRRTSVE
# UniProt Q15154: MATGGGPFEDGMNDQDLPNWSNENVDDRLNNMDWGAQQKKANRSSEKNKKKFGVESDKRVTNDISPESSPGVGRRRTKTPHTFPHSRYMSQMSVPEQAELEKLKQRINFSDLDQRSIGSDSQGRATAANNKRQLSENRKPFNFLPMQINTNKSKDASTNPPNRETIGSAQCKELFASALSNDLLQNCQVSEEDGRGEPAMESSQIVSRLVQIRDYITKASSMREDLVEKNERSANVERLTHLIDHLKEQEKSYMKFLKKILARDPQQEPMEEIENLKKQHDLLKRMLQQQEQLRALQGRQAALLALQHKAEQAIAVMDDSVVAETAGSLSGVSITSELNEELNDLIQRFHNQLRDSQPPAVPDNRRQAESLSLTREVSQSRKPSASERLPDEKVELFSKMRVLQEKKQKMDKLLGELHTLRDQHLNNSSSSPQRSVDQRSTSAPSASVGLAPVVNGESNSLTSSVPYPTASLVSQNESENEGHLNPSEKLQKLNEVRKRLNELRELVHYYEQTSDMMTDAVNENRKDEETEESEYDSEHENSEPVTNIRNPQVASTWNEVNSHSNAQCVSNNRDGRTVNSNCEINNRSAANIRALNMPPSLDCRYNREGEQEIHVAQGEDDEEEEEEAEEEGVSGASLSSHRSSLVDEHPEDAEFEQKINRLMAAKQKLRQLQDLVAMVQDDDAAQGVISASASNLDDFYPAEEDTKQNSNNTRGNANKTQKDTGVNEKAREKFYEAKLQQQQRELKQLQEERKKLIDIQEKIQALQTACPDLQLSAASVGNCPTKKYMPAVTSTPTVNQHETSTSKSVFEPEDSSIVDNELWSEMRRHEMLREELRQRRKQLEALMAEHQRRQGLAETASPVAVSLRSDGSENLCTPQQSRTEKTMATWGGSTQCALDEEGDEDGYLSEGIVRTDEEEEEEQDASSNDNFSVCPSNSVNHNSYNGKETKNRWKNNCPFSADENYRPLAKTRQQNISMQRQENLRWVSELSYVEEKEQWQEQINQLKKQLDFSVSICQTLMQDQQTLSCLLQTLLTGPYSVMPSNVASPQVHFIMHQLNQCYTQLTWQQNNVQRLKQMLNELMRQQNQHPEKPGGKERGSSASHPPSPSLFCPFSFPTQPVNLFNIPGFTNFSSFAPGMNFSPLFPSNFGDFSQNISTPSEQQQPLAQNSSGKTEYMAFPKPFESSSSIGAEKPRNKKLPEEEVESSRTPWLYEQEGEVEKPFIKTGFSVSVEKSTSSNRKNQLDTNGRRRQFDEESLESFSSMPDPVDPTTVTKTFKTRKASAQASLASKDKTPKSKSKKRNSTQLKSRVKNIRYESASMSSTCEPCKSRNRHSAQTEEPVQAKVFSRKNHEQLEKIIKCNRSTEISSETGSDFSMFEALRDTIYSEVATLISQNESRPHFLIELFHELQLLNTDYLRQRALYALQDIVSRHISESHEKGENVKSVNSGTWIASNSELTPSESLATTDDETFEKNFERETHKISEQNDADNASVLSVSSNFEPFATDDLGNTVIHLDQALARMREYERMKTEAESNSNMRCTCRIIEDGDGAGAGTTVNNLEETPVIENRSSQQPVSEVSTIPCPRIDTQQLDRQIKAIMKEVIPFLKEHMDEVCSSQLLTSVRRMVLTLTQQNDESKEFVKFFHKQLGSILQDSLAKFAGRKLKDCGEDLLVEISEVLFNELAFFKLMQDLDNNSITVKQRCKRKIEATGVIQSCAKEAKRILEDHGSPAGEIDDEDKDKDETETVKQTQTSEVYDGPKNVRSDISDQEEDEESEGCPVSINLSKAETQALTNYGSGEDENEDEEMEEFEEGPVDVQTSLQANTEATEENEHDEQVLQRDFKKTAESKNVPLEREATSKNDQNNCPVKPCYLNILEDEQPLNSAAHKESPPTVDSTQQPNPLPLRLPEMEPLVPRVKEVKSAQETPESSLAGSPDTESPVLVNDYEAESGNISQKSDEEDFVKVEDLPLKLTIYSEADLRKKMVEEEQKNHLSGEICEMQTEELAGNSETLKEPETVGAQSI
# Target: miniTurbo-LRRK2 (human) (UniProt Q5S007)
# Assay: proximity labelling; BioID eluates after streptavidin-based enrichment read by Western blot (anti-PCM1, anti-SSX2IP); control siRNA; 10 uM MLi-2 or DMSO
row,binding,Molecule
1,binds,Pericentriolar material 1 protein (from UniProt Q15154 1-2024)

# Target: miniTurbo-LRRK2 (human) (UniProt Q5S007)
# Assay: proximity labelling; HEK293 stably expressing mT-LRRK2; 1 uM MLi-2 against DMSO, 1 h prior to and during 2 h of 50 uM biotin; Strep-Tactin enrichment, LC-MSMS, LFQ with FDR-controlled t test
row,Molecule,binding
1,"Oral-facial-digital syndrome 1 protein (protein, UniProt O75665 1-1012) MMAQSNMFTVADVLSQDELRKKLYQTFKDRGILDTLKTQLRNQLIHELMHPVLSGELQPRSISVEGSSLLIGASNSLVADHLQRCGYEYSLSVFFPESGLAKEKVFTMQDLLQLIKINPTSSLYKSLVSGSDKENQKGFLMHFLKELAEYHQAKESCNMETQTSSTFNRDSLAEKLQLIDDQFADAYPQRIKFESLEIKLNEYKREIEEQLRAEMCQKLKFFKDTEIAKIKMEAKKKYEKELTMFQNDFEKACQAKSEALVLREKSTLERIHKHQEIETKEIYAQRQLLLKDMDLLRGREAELKQRVEAFELNQKLQEEKHKSITEALRRQEQNIKSFEETYDRKLKNELLKYQLELKDDYIIRTNRLIEDERKNKEKAVHLQEELIAINSKKEELNQSVNRVKELELELESVKAQSLAITKQNHMLNEKVKEMSDYSLLKEEKLELLAQNKLLKQQLEESRNENLRLLNRLAQPAPELAVFQKELRKAEKAIVVEHEEFESCRQALHKQLQDEIEHSAQLKAQILGYKASVKSLTTQVADLKLQLKQTQTALENEVYCNPKQSVIDRSVNGLINGNVVPCNGEISGDFLNNPFKQENVLARMVASRITNYPTAWVEGSSPDSDLEFVANTKARVKELQQEAERLEKAFRSYHRRVIKNSAKSPLAAKSPPSLHLLEAFKNITSSSPERHIFGEDRVVSEQPQVGTLEERNDVVEALTGSAASRLRGGTSSRRLSSTPLPKAKRSLESEMYLEGLGRSHIASPSPCPDRMPLPSPTESRHSLSIPPVSSPPEQKVGLYRRQTELQDKSEFSDVDKLAFKDNEEFESSFESAGNMPRQLEMGGLSPAGDMSHVDAAAAAVPLSYQHPSVDQKQIEEQKEEEKIREQQVKERRQREERRQSNLQEVLERERRELEKLYQERKMIEESLKIKIKKELEMENELEMSNQEIKDKSAHSENPLEKYMKIIQQEQDQESADKSSKKMVQEGSLVDTLQSSDKVESLTGFSHEELDDSW",binds
2,"Coiled-coil domain-containing protein 14 (protein, UniProt Q49A88 1-953) MKRGIRRDPFRKRKLGGRAKKVREPTAVNSFYREASLPSVWASLRRREMVRSGARPGQVLSSGRHTGPAKLTNGKKATYLRKIPRFNADSGYSIHSDSESQAETVHGLDGCASLLRDILRNEDSGSETAYLENRSNSRPLESKRYGSKKKRHEKHTIPLVVQKETSSSDNKKQIPNEASARSERDTSDLEQNWSLQDHYRMYSPIIYQALCEHVQTQMSLMNDLTSKNIPNGIPAVPCHAPSHSESQATPHSSYGLCTSTPVWSLQRPPCPPKVHSEVQTDGNSQFASQGKTVSATCTDVLRNSFNTSPGVPCSLPKTDISAIPTLQQLGLVNGILPQQGIHKETDLLKCIQTYLSLFRSHGKETHLDSQTHRSPTQSQPAFLATNEEKCAREQIREATSERKDLNIHVRDTKTVKDVQKAKNVNKTAEKVRIIKYLLGELKALVAEQEDSEIQRLITEMEACISVLPTVSGNTDIQVEIALAMQPLRSENAQLRRQLRILNQQLREQQKTQKPSGAVDCNLELFSLQSLNMSLQNQLEESLKSQELLQSKNEELLKVIENQKDENKKFSSIFKDKDQTILENKQQYDIEITRIKIELEEALVNVKSSQFKLETAEKENQILGITLRQRDAEVTRLRELTRTLQTSMAKLLSDLSVDSARCKPGNNLTKSLLNIHDKQLQHDPAPAHTSIMSYLNKLETNYSFTHSEPLSTIKNEETIEPDKTYENVLSSRGPQNSNTRGMEEASAPGIISALSKQDSDEGSETMALIEDEHNLDNTIYIPFARSTPEKKSPLSKRLSPQPQIRAATTQLVSNSGLAVSGKENKLCTPVICSSSTKEAEDAPEKLSRASDMKDTQLLKKIKEAIGKIPAATKEPEEQTACHGPSGCLSNSLQVKGNTVCDGSVFTSDLMSDWSISSFSTFTSRDEQDFRNGLAALDANIARLQKSLRTGLLEK",binds
3,"Centrosomal protein of 162 kDa (protein, UniProt Q5TB80 1-1403) MANCSQEELDEEFEQFMKELSDDSFENSDKTARQSKKEMKKKDTVPWWITEDDFKDDGLLGTNVSYLKTKKTSQPVMEIEEESAEKIQFLKSSGTSLLSTDSLETNELVVSELNHSSLGVGLDTLEEQEEKEQFFARLEKGLTSSIDYSRLNKELDSNDSTHFKALHSNQANAELTDDEHENESKHEELAENYSDDFEDEYVGAPLTTKDEEMPSKENSKSEKISVPKQEEEKTGMLANVVLLDSLDSVAEVNLDEQDKITPKPRCLPEMTENEMTGTGVSYGQSSSDVEALHQAYCHIAHSLGDEDKQKIESNTVEDIKSSVKGHPQENEENSKNISTMESDLPTVEELMKPIRIDSFGISGFDLQPVSSEKVAERKETEFFSSLPLKMNPNILSQDSQHVNLFFDKNDENVILQKTTNESMENSCPQVTEVTATEEHVDKMYLNILRKKITVNSSSLSQDDKINKTYRSQLSSEEEGAVMGKQVPYKKARSAPPLLKRKPQSGLYASVRSSGYGKPSSPLKMFSTLEKKTSEDIIKSKNLRSISTSNQPRKKEILSGTKLIKPAALDKPAHKTESCLSTRKKSENPTETDSCIQFQTDSLGYCGENKEKKLLMFKRVQEAEDKWRGAQALIEQIKATFSEKEKELENKLEELKKQQEKELFKLNQDNYILQAKLSSFEETNKKQRWLHFGEAADPVTGEKLKQIQKEIQEQETLLQGYQQENERLYNQVKDLQEQNKKNEERMFKENQSLFSEVASLKEQMHKSRFLSQVVEDSEPTRNQNFTDLLAELRMAQKEKDSLLEDIKRLKQDKQALEVDFEKMKKERDQAKDQIAYVTGEKLYEIKILEETHKQEISRLQKRLQWYAENQELLDKDALRLREANEEIEKLKLEIEKLKAESGNPSIRQKIRLKDKAADAKKIQDLERQVKEMEGILKRRYPNSLPALILAASAAGDTVDKNTVEFMEKRIKKLEADLEGKDEDAKKSLRTMEQQFQKMKIQYEQRLEQQEQLLACKLNQHDSPRIKALEKELDDIKEAHQITVRNLEAEIDVLKHQNAELDVKKNDKDDEDFQSIEFQVEQAHAKAKLVRLNEELAAKKREIQDLSKTVERLQKDRRMMLSNQNSKGREEMSAKRAKKDVLHSSKGNANSFPGTLDSKLYQPHTFTDSHVSEVLQENYRLKNELEGLISEKNELKMKSEAVMNQFENSMRRVKEDTAAHIASLKASHQREIEKLLCQNAVENSSSKVAELNRKIATQEVLIRHFQSQVNELQSKQESLVVSEVREEILQKEITKLLEELREAKENHTPEMKHFVGLEKKIKQMEMRHAQREQELQQIIQQTHQVVETEQNKEVEKWKRLAQLKNRELEKFRTELDSILDVLRELHRQGVVVPVAFADEMNAPEY",binds

# The remaining lines, values ahead:
row,binding,Molecule
1,binds,Pericentriolar material 1 protein (from UniProt Q15154 1-2024)
2,binds,"Progesterone-induced-blocking factor 1 (protein, UniProt Q8WXW3 1-757) MSRKISKESKKVNISSSLESEDISLETTVPTDDISSSEEREGKVRITRQLIERKELLHNIQLLKIELSQKTMMIDNLKVDYLTKIEELEEKLNDALHQKQLLTLRLDNQLAFQQKDASKYQELMKQEMETILLRQKQLEETNLQLREKAGDVRRNLRDFELTEEQYIKLKAFPEDQLSIPEYVSVRFYELVNPLRKEICELQVKKNILAEELSTNKNQLKQLTETYEEDRKNYSEVQIRCQRLALELADTKQLIQQGDYRQENYDKVKSERDALEQEVIELRRKHEILEASHMIQTKERSELSKEVVTLEQTVTLLQKDKEYLNRQNMELSVRCAHEEDRLERLQAQLEESKKAREEMYEKYVASRDHYKTEYENKLHDELEQIRLKTNQEIDQLRNASREMYERENRNLREARDNAVAEKERAVMAEKDALEKHDQLLDRYRELQLSTESKVTEFLHQSKLKSFESERVQLLQEETARNLTQCQLECEKYQKKLEVLTKEFYSLQASSEKRITELQAQNSEHQARLDIYEKLEKELDEIIMQTAEIENEDEAERVLFSYGYGANVPTTAKRRLKQSVHLARRVLQLEKQNSLILKDLEHRKDQVTQLSQELDRANSLLNQTQQPYRYLIESVRQRDSKIDSLTESIAQLEKDVSNLNKEKSALLQTKNQMALDLEQLLNHREELAAMKQILVKMHSKHSENSLLLTKTEPKHVTENQKSKTLNVPKEHEDNIFTPKPTLFTKKEAPEWSKKQKMKT"

# No constants are given. Whether binding was seen depends on the method and setting. Binding seen in cells or lysates may run through a third protein. A yes stands for co-enrichment or nearness to the bait. Other partners may have been found.
